13 molecules from article PMC7878863 can be followed below.

Protein sequences, listed by entry. Tags and fused reporters are not part of them. Lines headed by an entry give the natural chain unless they say otherwise; changes in a name come on top. Residues count along the entry.
UniProt P02545, residues 1-646: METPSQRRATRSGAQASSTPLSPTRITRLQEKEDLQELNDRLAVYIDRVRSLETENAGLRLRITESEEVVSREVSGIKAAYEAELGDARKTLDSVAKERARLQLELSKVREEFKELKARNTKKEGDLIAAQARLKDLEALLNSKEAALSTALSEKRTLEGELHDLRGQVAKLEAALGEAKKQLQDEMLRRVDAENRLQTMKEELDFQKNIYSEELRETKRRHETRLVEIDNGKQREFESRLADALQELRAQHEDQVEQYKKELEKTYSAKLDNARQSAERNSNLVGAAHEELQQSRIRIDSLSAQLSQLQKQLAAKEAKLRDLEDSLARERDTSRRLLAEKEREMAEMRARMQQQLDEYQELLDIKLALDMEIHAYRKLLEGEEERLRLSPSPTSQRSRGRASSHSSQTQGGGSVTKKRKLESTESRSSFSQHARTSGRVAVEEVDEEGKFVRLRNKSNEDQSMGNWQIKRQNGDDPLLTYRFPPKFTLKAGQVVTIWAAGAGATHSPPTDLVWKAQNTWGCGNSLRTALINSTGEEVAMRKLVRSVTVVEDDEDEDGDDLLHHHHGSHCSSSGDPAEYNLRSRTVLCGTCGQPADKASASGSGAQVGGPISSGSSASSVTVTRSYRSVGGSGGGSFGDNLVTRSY
UniProt Q08554: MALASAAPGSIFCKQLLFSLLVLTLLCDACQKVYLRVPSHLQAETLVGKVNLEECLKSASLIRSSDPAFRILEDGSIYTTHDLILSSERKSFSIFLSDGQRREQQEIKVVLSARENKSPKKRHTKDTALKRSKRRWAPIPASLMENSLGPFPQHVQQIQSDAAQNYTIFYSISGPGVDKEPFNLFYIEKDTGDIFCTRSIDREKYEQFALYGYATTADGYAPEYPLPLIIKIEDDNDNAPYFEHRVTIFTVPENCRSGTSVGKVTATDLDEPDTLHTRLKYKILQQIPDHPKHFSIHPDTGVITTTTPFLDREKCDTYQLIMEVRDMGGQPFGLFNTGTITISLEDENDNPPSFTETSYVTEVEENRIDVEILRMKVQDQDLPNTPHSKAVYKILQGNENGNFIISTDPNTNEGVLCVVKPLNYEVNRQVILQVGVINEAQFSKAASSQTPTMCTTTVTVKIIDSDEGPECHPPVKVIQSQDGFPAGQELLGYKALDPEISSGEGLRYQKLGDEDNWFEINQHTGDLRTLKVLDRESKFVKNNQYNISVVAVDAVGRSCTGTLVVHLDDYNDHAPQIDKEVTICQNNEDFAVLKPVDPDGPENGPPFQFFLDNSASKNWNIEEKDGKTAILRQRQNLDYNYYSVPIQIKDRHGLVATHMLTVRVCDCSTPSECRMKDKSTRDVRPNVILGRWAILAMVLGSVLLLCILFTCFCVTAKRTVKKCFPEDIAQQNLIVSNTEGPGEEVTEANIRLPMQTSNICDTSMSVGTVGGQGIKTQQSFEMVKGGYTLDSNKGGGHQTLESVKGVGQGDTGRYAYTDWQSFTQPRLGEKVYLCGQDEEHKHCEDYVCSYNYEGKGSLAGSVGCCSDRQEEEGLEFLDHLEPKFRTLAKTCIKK
UniProt Q02413, residues 50-1049: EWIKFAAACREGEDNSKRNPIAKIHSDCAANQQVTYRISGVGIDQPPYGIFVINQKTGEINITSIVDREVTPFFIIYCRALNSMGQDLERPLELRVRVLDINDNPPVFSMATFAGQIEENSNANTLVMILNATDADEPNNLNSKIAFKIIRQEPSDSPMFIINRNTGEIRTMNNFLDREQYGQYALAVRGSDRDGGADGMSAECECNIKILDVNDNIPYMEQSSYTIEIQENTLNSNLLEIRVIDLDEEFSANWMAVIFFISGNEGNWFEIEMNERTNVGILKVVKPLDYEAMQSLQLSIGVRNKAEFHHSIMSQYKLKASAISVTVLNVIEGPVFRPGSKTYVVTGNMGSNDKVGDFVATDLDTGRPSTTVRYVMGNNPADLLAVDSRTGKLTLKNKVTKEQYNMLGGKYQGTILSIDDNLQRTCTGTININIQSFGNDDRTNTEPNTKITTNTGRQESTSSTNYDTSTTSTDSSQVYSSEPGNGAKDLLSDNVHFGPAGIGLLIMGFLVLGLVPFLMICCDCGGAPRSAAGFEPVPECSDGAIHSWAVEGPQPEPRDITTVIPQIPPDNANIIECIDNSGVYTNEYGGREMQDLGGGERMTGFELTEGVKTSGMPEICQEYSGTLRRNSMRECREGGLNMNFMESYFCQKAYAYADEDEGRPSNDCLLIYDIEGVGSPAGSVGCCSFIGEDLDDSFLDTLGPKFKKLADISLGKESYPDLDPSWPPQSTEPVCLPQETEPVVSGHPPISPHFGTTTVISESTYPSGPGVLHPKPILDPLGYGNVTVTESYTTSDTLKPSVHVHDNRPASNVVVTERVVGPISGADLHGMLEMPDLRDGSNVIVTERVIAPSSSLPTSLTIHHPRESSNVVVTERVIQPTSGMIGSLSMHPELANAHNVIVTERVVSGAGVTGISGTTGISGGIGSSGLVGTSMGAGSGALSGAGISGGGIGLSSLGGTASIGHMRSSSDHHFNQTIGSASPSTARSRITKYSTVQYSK
UniProt P11142: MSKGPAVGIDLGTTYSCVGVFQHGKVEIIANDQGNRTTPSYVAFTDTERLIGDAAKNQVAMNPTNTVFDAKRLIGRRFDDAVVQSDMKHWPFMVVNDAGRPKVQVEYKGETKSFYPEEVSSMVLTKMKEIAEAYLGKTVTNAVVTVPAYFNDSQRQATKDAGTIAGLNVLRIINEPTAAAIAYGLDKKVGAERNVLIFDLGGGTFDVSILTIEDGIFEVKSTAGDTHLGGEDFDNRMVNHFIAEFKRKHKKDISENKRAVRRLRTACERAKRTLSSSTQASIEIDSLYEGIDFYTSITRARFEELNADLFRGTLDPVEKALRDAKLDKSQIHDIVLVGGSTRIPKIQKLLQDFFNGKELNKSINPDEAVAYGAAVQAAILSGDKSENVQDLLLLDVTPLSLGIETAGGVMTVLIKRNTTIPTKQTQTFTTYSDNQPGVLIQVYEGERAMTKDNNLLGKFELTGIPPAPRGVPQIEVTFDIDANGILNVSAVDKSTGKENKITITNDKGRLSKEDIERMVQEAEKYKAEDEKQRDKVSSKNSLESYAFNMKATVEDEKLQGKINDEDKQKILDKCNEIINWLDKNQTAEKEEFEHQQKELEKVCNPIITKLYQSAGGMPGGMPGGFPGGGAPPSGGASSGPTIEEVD
UniProt P04264: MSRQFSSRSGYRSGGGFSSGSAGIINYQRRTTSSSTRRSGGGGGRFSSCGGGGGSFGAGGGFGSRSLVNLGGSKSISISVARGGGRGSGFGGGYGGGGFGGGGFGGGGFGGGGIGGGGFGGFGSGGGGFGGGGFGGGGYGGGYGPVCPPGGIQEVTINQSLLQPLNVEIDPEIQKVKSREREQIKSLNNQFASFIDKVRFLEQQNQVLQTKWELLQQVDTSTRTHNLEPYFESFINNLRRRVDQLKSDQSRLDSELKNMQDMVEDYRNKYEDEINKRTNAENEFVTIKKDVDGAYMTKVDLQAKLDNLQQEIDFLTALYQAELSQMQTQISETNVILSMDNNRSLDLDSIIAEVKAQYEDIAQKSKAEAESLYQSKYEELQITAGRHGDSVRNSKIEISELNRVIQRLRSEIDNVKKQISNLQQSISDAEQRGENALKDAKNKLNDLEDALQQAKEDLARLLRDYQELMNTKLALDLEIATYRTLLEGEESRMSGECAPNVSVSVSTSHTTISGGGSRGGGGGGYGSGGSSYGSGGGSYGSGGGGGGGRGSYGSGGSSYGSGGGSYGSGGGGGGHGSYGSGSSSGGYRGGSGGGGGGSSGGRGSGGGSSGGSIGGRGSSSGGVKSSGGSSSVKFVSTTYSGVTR
UniProt P35908: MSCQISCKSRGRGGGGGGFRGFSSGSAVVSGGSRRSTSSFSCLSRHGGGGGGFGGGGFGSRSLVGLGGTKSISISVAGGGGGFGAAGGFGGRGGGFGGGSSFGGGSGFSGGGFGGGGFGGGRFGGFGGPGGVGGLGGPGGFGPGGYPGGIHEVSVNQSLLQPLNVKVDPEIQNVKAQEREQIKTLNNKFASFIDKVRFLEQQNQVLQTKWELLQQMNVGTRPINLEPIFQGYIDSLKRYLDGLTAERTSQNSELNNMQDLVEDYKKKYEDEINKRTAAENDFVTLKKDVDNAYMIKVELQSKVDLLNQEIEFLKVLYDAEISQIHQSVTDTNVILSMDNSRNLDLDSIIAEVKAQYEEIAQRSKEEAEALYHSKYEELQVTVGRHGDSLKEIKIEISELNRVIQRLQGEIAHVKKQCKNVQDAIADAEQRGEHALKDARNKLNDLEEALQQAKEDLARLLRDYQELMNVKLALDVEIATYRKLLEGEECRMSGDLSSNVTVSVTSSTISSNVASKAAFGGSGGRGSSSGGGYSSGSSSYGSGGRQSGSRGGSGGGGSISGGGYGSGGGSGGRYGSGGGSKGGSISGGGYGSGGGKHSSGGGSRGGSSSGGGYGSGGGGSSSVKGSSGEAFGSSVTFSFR
UniProt P28482: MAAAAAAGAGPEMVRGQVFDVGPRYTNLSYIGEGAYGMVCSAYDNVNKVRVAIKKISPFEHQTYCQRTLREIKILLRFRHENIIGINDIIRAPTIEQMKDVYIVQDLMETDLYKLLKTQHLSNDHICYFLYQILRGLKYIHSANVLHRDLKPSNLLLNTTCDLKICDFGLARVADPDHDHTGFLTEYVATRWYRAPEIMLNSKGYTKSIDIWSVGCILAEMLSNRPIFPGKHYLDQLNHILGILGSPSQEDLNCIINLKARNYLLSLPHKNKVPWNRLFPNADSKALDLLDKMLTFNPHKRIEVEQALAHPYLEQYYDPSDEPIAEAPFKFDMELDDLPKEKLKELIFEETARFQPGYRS
UniProt P14618: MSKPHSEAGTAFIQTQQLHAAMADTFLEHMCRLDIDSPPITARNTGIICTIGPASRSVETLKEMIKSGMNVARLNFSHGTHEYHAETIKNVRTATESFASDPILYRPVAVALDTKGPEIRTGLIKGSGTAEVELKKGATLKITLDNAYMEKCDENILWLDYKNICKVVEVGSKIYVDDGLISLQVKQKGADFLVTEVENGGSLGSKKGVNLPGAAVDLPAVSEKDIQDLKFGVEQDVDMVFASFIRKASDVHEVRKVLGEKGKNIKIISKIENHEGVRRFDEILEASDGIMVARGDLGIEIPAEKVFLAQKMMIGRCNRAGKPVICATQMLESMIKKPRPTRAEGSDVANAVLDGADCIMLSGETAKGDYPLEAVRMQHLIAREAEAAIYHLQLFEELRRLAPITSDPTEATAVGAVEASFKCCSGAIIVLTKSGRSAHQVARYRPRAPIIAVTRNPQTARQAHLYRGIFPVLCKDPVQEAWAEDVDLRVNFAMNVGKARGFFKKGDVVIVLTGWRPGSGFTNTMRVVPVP
UniProt P68363: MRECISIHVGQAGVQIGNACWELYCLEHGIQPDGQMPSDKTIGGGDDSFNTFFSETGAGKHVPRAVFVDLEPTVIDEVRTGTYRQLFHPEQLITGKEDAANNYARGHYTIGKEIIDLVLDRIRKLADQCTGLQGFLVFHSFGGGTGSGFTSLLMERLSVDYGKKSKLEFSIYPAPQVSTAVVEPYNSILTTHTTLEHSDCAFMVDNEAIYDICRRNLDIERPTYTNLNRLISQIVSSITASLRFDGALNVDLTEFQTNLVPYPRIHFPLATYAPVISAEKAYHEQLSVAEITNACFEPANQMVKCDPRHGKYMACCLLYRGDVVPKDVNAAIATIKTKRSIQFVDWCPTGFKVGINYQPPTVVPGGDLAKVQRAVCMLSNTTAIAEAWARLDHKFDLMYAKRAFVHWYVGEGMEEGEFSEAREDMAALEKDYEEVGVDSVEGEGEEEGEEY
UniProt P68371: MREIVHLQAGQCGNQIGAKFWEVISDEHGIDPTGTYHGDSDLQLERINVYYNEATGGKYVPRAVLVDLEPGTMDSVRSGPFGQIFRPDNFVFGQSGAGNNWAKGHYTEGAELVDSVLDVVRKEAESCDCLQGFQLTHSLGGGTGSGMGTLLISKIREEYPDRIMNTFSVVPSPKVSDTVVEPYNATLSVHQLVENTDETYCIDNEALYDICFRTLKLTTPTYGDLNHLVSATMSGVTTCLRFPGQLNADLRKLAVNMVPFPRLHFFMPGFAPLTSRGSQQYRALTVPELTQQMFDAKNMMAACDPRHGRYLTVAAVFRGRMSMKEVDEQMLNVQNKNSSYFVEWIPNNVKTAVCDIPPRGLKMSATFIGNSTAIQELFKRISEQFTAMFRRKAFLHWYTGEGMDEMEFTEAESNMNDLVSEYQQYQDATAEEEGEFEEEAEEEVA

Where two headings read alike, the source gives them in different places. These are yes or no findings as the source states them, for the method shown. In cells and extracts the contact can be indirect. A yes stands for co-enrichment or nearness to the bait. Other partners may have been found. Sequences can lack the tags named with a protein.

Experiment [1] concerns the target T1, YFP-SPANX-A (human) (UniProt Q9NS26).
T1 sequence: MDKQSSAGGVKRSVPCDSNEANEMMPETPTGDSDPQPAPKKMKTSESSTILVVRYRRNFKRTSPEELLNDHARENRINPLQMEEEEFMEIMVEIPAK
The experiment in a line: affinity purification with mass spectrometry; YFP-SPANX-A expressed in A375 cells, lysate in Co-IP buffer (100 mM NaCl, 20 mM Tris-HCl, 1% NP-40), pulled down in quadruplicate with GFP-Trap Magnetic Agarose; LC-MS/MS, label-free quantification; interactors identified in at least three of the four pull-downs.

For experiment [2], the target named is T1, YFP-SPANX-A (human). The experiment is described as above. The source holds these as a separate data set.

For the molecule “Lamin-A/C (LMNA) (from UniProt P02545 1-646)”, the binding entry with YFP-SPANX-A (human) [1] is recorded as “binds”.

Regarding “desmocollin-1 (DSC1) (from UniProt Q08554)”, in the experiment with YFP-SPANX-A (human) [1], the binding entry is “binds”. Still for that read-out and setting: to “desmoglein-1 (DSG1) (from UniProt Q02413 50-1049)” belongs “binds”.

Turning to “heat shock cognate 71 kDa protein (HSPA8) (from UniProt P11142 1-646)”, in the experiment with YFP-SPANX-A (human) [1], the binding entry is reported as “binds”. On the same count and under the same terms, to “inosine-5-monophosphate dehydrogenase 2 (IMPDH2) (from UniProt P12268 1-514) (enzyme)” belongs “binds”. On the same count and under the same terms, to “keratin KRT1 (from UniProt P04264 1-644)” belongs “binds”; to “keratin KRT2 (from UniProt P35908 1-639)”, “binds”; to “mitogen-activated protein kinase 1 (MAPK1) (from UniProt P28482 1-360) (enzyme)”, “binds”. Turning to “pyruvate kinase (PKM) (from UniProt P14618 1-531) (enzyme)”, the binding entry with YFP-SPANX-A (human) [1] is given as “binds”. The same measure, in the same setting: to “α tubulin (TUBA1B) (from UniProt P68363 1-451)” belongs “binds”; to “β tubulin (TUBB4B) (from UniProt P68371 1-445)”, “binds”.

B1: keratin KRT9 (protein, UniProt P35527 1-623)
chain: MSCRQFSSSYLSRSGGGGGGGLGSGGSIRSSYSRFSSSGGGGGGGRFSSSSGYGGGSSRVCGRGGGGSFGYSYGGGSGGGFSASSLGGGFGGGSRGFGGASGGGYSSSGGFGGGFGGGSGGGFGGGYGSGFGGFGGFGGGAGGGDGGILTANEKSTMQELNSRLASYLDKVQALEEANNDLENKIQDWYDKKGPAAIQKNYSPYYNTIDDLKDQIVDLTVGNNKTLLDIDNTRMTLDDFRIKFEMEQNLRQGVDADINGLRQVLDNLTMEKSDLEMQYETLQEELMALKKNHKEEMSQLTGQNSGDVNVEINVAPGKDLTKTLNDMRQEYEQLIAKNRKDIENQYETQITQIEHEVSSSGQEVQSSAKEVTQLRHGVQELEIELQSQLSKKAALEKSLEDTKNRYCGQLQMIQEQISNLEAQITDVRQEIECQNQEYSLLLSIKMRLEKEIETYHNLLEGGQEDFESSGAGKIGLGGRGGSGGSYGRGSRGGSGGSYGGGGSGGGYGGGSGSRGGSGGSYGGGSGSGGGSGGGYGGGSGGGHSGGSGGGHSGGSGGNYGGGSGSGGGSGGGYGGGSGSRGGSGGSHGGGSGFGGESGGSYGGGEEASGSGGGYGGGSGKSSHS
On to B1, for which, in the experiment with YFP-SPANX-A (human) [2], the binding entry is recorded as “binds”.

B2: F-box only protein 50 (NCCRP1) (protein, UniProt Q6ZVX7 1-275)
chain: MEEVREGHALGGGMEADGPASLQELPPSPRSPSPPPSPPPLPSPPSLPSPAAPEAPELPEPAQPSEAHARQLLLEEWGPLSGGLELPQRLTWKLLLLRRPLYRNLLRSPNPEGINIYEPAPPTGPTQRPLETLGNFRGWYIRTEKLQQNQSWTVKQQCVDLLAEGLWEELLDDEQPAITVMDWFEDSRLDACVYELHVWLLAADRRTVIAQHHVAPRTSGRGPPGRWVQVSHVFRHYGPGVRFIHFLHKAKNRMEPGGLRRTRVTDSSVSVQLRE
For the molecule B2, the binding entry with YFP-SPANX-A (human) [2] was “binds”.
